Measured data: PubChem BioAssay AID1259254 (NCATS, 2017)

Screen: 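Finding genes that stop cells copying their DNA twice in one cycle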 (primary screen)
System: human HCT116 colorectal cancer cells
Knock-down reagent: single siRNA against human genes
Duration: 3 days
Read-out: 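Nuclei stained with Hoechst and imaged; cell-cycle phase assigned by DNA content; G2 share scaled per plate, non-targeting siRNA 0%, GMNN siRNA 100%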
Scale: G2 robust z-score and G2 cells, % of GMNN control: higher = more G2 cells, more excess DNA replication
Hit rule: 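Active siRNAs have a G2 robust z of 5 or more median absolute deviations over the median, which in these data means about 38% or higher of GMNN control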
This is one part, drawn at random, of about 59,000 deposited reagents. In the full data, about 1,550 (2.6%) were called active. 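G2 share is only a proxy for re-replication; each gene was hit by three separate siRNAs, and active genes were retested.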 The numbers tell different reagents against one gene apart. Further read-outs or replicates are left out here. Not stated in the record: the amount of reagent.

OR4C16 (olfactory receptor family 4 subfamily C member 16) #1 — G2 robust z-score = -0.209; G2 cells, % of GMNN control = 1.5; Outcome = inactive
OR4C16 (olfactory receptor family 4 subfamily C member 16) #2 — G2 robust z-score = -0.722; G2 cells, % of GMNN control = -2.11; Outcome = inactive
OR4C16 (olfactory receptor family 4 subfamily C member 16) #3 — G2 robust z-score = 1.25; G2 cells, % of GMNN control = 11.8; Outcome = inactive
RFX6 (regulatory factor X6) #1 — G2 robust z-score = -0.0438; G2 cells, % of GMNN control = 2.66; Outcome = inactive
RFX6 (regulatory factor X6) #2 — G2 robust z-score = 0.712; G2 cells, % of GMNN control = 7.97; Outcome = inactive
RFX6 (regulatory factor X6) #3 — G2 robust z-score = -1.22; G2 cells, % of GMNN control = -5.63; Outcome = inactive
PALLD (palladin, cytoskeletal associated protein) #1 — G2 robust z-score = -0.493; G2 cells, % of GMNN control = -0.499; Outcome = inactive
PALLD (palladin, cytoskeletal associated protein) #2 — G2 robust z-score = -1.29; G2 cells, % of GMNN control = -6.08; Outcome = inactive
PALLD (palladin, cytoskeletal associated protein) #3 — G2 robust z-score = -1.09; G2 cells, % of GMNN control = -4.7; Outcome = inactive
H2BC17 (H2B clustered histone 17) #1 — G2 robust z-score = -0.872; G2 cells, % of GMNN control = -3.17; Outcome = inactive
H2BC17 (H2B clustered histone 17) #2 — G2 robust z-score = -0.528; G2 cells, % of GMNN control = -0.75; Outcome = inactive
H2BC17 (H2B clustered histone 17) #3 — G2 robust z-score = -0.521; G2 cells, % of GMNN control = -0.696; Outcome = inactive
FAM186A (family with sequence similarity 186 member A) #1 — G2 robust z-score = -0.436; G2 cells, % of GMNN control = -0.097; Outcome = inactive
FAM186A (family with sequence similarity 186 member A) #2 — G2 robust z-score = -1.12; G2 cells, % of GMNN control = -4.9; Outcome = inactive
FAM186A (family with sequence similarity 186 member A) #3 — G2 robust z-score = -0.615; G2 cells, % of GMNN control = -1.36; Outcome = inactive
SLC39A9 #1 — G2 robust z-score = -0.418; G2 cells, % of GMNN control = 0.0243; Outcome = inactive
SLC39A9 #2 — G2 robust z-score = -0.75; G2 cells, % of GMNN control = -2.31; Outcome = inactive
SLC39A9 #3 — G2 robust z-score = -0.358; G2 cells, % of GMNN control = 0.448; Outcome = inactive
HAO2 (hydroxyacid oxidase 2) #1 — G2 robust z-score = 2.12; G2 cells, % of GMNN control = 17.9; Outcome = inactive
HAO2 (hydroxyacid oxidase 2) #2 — G2 robust z-score = 0.904; G2 cells, % of GMNN control = 9.33; Outcome = inactive
HAO2 (hydroxyacid oxidase 2) #3 — G2 robust z-score = 2.66; G2 cells, % of GMNN control = 21.7; Outcome = inactive
HLA-G (major histocompatibility complex, class I, G) #1 — G2 robust z-score = 1.12; G2 cells, % of GMNN control = 10.9; Outcome = inactive
HLA-G (major histocompatibility complex, class I, G) #2 — G2 robust z-score = 0.0104; G2 cells, % of GMNN control = 3.04; Outcome = inactive
HLA-G (major histocompatibility complex, class I, G) #3 — G2 robust z-score = 0.828; G2 cells, % of GMNN control = 8.79; Outcome = inactive
